These results are taken from patent US20200392147.

Amino acid sequences for entries named in this document (tags omitted).
UniProt P10630, whole entry: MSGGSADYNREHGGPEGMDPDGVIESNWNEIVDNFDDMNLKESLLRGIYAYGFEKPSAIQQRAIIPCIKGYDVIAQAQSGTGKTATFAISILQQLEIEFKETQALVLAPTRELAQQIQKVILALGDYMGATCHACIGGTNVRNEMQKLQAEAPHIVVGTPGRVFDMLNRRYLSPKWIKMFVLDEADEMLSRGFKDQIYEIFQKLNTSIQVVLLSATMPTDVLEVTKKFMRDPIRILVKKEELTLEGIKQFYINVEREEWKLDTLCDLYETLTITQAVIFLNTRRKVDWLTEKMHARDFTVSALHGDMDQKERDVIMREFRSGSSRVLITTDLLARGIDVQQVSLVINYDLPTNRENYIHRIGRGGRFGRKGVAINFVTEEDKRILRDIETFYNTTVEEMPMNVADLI
UniProt P60843, whole entry: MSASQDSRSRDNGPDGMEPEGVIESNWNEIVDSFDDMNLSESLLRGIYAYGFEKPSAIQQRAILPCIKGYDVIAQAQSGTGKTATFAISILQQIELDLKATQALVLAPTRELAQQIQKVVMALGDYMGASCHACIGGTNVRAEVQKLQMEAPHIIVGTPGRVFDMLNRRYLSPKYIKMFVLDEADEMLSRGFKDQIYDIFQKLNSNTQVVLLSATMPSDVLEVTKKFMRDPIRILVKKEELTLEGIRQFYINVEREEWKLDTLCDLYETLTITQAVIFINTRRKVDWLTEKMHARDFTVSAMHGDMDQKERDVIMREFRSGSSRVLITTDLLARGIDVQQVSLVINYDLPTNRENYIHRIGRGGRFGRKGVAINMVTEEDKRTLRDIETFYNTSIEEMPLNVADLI

The comparison behind a weaker result is the experiment's own reference, which may not be listed here.

One data set deals with eIF4A2 (UniProt P10630). As to the kind of experiment: FP. To be noted: purified recombinant protein; protein details: His6 (pET15b, E. coli BL21(DE3)); label: FAM.
Another data set deals with eIF4A1 (UniProt P60843). As to the kind of experiment: FP. Conditions: purified recombinant protein; protein details: His6 (pET15b, E. coli BL21(DE3)); label: FAM.

UCUCUCUCUCUCUCUC [poly r(UC)8]: the binding result with eIF4A2 and with eIF4A1 was “binds more weakly” in each case.

As to AAAAAAAAAAAAAAAA [poly r(A)16], the binding result with eIF4A2 and in the data set with eIF4A1 was “binds more weakly” throughout.

For the sequence CCCCCCCCCCCCCCCC [poly r(C)16], the binding result in the data set with eIF4A2 and in the data set with eIF4A1 was “binds more weakly” throughout.
